This assay has as its target isoleucine zipper (ILZ) fused with extra-cellular portion of TRAIL (amino acids 95 to 281), secreted from TE5 cells infected with Ad-ILZ-TR (UniProt P50591). Kind of assay: EGS (1 mM) cross-linking of supernatant, 12% SDS-PAGE, anti-TRAIL western blot; self-association.

The chains behind the UniProt entries cited, without tags or fusion partners. Residues count along the entry.
UniProt P50591, residues 95-281: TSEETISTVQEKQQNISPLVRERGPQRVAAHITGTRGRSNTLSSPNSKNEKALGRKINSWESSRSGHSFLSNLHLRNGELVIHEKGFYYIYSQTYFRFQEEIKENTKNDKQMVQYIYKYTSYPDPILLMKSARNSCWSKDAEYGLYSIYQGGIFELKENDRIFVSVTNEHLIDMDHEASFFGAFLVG

Results are given in words; binding and its absence hold for the method and conditions named. Some binding calls cover weakened binding; strength is not graded here.

With “isoleucine zipper (ILZ) fused with extra-cellular portion of TRAIL (amino acids 95 to 281), secreted from TE5 cells infected with Ad-ILZ-TR (from UniProt P50591 95-281) (ligand)”, the binding entry is listed as “binds”.
